From paper PMC2900304

Target: T1, human R1 (HR1), ribonucleotide reductase large subunit, endogenous (human (endogenous in HeLa)) (UniProt P23921)
T1 sequence: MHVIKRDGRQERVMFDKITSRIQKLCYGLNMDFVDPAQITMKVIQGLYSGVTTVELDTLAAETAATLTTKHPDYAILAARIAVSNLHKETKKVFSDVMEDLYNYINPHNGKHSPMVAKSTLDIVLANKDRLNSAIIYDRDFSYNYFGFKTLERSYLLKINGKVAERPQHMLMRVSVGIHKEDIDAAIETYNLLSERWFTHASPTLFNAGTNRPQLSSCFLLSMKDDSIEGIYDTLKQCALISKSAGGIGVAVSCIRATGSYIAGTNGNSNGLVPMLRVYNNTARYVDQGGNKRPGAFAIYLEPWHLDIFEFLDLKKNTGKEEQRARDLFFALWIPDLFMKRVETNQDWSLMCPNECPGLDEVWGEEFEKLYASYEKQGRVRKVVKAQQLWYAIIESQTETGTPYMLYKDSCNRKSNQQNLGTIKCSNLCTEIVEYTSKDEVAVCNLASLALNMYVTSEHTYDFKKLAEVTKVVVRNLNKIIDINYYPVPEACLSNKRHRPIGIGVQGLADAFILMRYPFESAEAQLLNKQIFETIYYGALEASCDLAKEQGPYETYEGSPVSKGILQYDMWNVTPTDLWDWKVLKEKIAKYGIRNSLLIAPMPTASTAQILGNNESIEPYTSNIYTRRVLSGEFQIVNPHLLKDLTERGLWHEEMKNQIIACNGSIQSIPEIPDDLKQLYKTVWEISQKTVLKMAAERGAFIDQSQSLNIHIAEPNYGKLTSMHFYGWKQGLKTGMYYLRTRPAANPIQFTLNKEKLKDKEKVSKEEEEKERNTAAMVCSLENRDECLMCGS
Experiment: co-IP

**Q.** Which binding does the source give for “His6-tagged myxoma virus (MYXV) R2 (from UniProt Q9Q8S6)” here?
**A.** Its binding is “binds”.

Results are given in words; binding and its absence hold for the method and conditions named. In cells and extracts the contact can be indirect. A result given as binding can be weak or reduced; the word gives no strength.
